Taken from: PubChem BioAssay AID1159578 (Peter MacCallum Cancer Centre, 2015)

Purpose: 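siRNA pools altering how lymphatic endothelial cells close a scratch wound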 (primary screen)
Cell system: human lymphatic endothelial cells
Knock-down reagent: siRNA pool against human genes, 40 nM
Time to read-out: 48 h after transfection
Measurement: 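High-content imaging of dye-stained cells in a scratch assay measures filled wound area and nuclei per well; duplicate means given as ratio to mock and robust z-score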
Direction: migration robust z-score: higher = faster migration into the scratch; nuclei per well: higher = more cells in the well
Call rule: 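Migration changed when robust z exceeds 2 or falls below -2 and mean nuclei number is at least 3300; otherwise not called changed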
Calls: active = migration changed; inactive = no migration change, or too few cells
In all, the deposit lists about 18,000 reagents; this is a part drawn at random. In the full data, about 1,030 (5.7%) are marked active. 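Inactive calls also include pools with fewer than 3300 nuclei, whose migration was not assessed.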 Raw values are not corrected between plates. Entries without a mark were called inactive. Further read-outs or replicates are left out here.

{"Target gene": "ACTB (GeneID 60)", "migration robust z-score": 1.82, "migration class with cell-count check": "migration z between -2 and 2; enough cells", "nuclei per well, duplicate mean": 5654}
{"Target gene": "PAGE2 (GeneID 203569)", "migration robust z-score": -0.9, "migration class with cell-count check": "migration z between -2 and 2; enough cells", "nuclei per well, duplicate mean": 4228}
{"Target gene": "OR14K1 (GeneID 343170)", "migration robust z-score": -0.9, "migration class with cell-count check": "migration z between -2 and 2; enough cells", "nuclei per well, duplicate mean": 5971}
{"Target gene": "SELENBP1 (GeneID 8991)", "migration robust z-score": 0.68, "migration class with cell-count check": "migration z between -2 and 2; enough cells", "nuclei per well, duplicate mean": 5663}
{"Target gene": "TRNT1 (GeneID 51095)", "migration robust z-score": 0.36, "migration class with cell-count check": "migration z between -2 and 2; enough cells", "nuclei per well, duplicate mean": 4626}
{"Target gene": "SDCBP (GeneID 6386)", "migration robust z-score": 0.62, "migration class with cell-count check": "migration z between -2 and 2; enough cells", "nuclei per well, duplicate mean": 6588}
{"Target gene": "GINS3 (GeneID 64785)", "migration robust z-score": -0.99, "migration class with cell-count check": "migration z between -2 and 2; enough cells", "nuclei per well, duplicate mean": 6352}
{"Target gene": "ITM2B (GeneID 9445)", "migration robust z-score": 0.83, "migration class with cell-count check": "migration z between -2 and 2; enough cells", "nuclei per well, duplicate mean": 6113}
{"Target gene": "CD8A (GeneID 925)", "migration robust z-score": "-2.8 (active)", "migration class with cell-count check": "migration z below -2; enough cells", "nuclei per well, duplicate mean": 4358}
{"Target gene": "LRRC42 (GeneID 115353)", "migration robust z-score": -0.56, "migration class with cell-count check": "migration z between -2 and 2; enough cells", "nuclei per well, duplicate mean": 5848}
{"Target gene": "ZIK1 (GeneID 284307)", "migration robust z-score": -1.25, "migration class with cell-count check": "migration z between -2 and 2; enough cells", "nuclei per well, duplicate mean": 5626}
{"Target gene": "RFC2 (GeneID 5982)", "migration robust z-score": 0.44, "migration class with cell-count check": "migration z between -2 and 2; enough cells", "nuclei per well, duplicate mean": 5595}
{"Target gene": "KRT27 (GeneID 342574)", "migration robust z-score": -0.78, "migration class with cell-count check": "migration z between -2 and 2; enough cells", "nuclei per well, duplicate mean": 3906}
{"Target gene": "TMEM201 (GeneID 199953)", "migration robust z-score": -1.68, "migration class with cell-count check": "migration z between -2 and 2; enough cells", "nuclei per well, duplicate mean": 5412}
{"Target gene": "TMF1 (GeneID 7110)", "migration robust z-score": 0.24, "migration class with cell-count check": "migration z between -2 and 2; enough cells", "nuclei per well, duplicate mean": 5348}
{"Target gene": "HDDC3 (GeneID 374659)", "migration robust z-score": -1.36, "migration class with cell-count check": "migration z between -2 and 2; enough cells", "nuclei per well, duplicate mean": 5928}
{"Target gene": "MGME1 (GeneID 92667)", "migration robust z-score": -0.78, "migration class with cell-count check": "migration z between -2 and 2; enough cells", "nuclei per well, duplicate mean": 4904}
{"Target gene": "OSGIN2 (GeneID 734)", "migration robust z-score": 1.04, "migration class with cell-count check": "migration z between -2 and 2; enough cells", "nuclei per well, duplicate mean": 5266}
{"Target gene": "ACAD8 (GeneID 27034)", "migration robust z-score": -0.05, "migration class with cell-count check": "migration z between -2 and 2; enough cells", "nuclei per well, duplicate mean": 5082}
{"Target gene": "TTC6 (GeneID 319089)", "migration robust z-score": 0.92, "migration class with cell-count check": "migration z between -2 and 2; enough cells", "nuclei per well, duplicate mean": 6714}
{"Target gene": "ARHGEF28 (GeneID 64283)", "migration robust z-score": 0.24, "migration class with cell-count check": "migration z between -2 and 2; enough cells", "nuclei per well, duplicate mean": 6511}
